Assay results reported in PubChem BioAssay AID504834 (National Center for Advancing Translational Sciences (NCATS), 2011).
Out of some 320,000 compounds screened, about 22,000 (6.9%) were called active. The shares of active, inactive and inconclusive entries below differ from those in the screen. Calls follow the shape of the dose curve; as a rule, active = well fitted inhibition curve with a large enough effect; inconclusive = small, poorly fitted or top-dose-only effect, or another doubt; inactive = no such curve, though single readings can be large or run the other way. Potencies of inconclusive entries are doubtful fits and often do not repeat.
Potency is read from the fitted curve at half-maximal effect.

Experiment: Primary qHTS for delayed death inhibitors of the malarial parasite plastid, 96 hour incubation
Settings: P. falciparum luciferase reporter growth; series mostly up to 28.7 µM
Outline: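 P. falciparum expressing integrated firefly luciferase grown in erythrocytes (2% hematocrit, 0.05% parasitemia final) with compounds for 96 hours at 37 C, 5% CO2. Growth inhibition read as loss of luminescence after adding luciferase detection reagent.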
For `CCN(CC)S(=O)(=O)c1ccc(OC)c(NC(=O)CCc2c(C)noc2C)c1`, the Potency was “inactive”. For `CCCN1CCC(=O)N([C@H](CSc2ccc(C)cc2)Cc2ccccc2)CC1`, the Potency was active: 5.86 µM. For `COc1ccc(C)cc1NC(=O)c1cnc2n(c1=O)CCS2`, the Potency was inconclusive: 13.1 µM [inhibitor, single point]. In the case of `COc1ccc(C)cc1NC(=O)CN1CCN(S(=O)(=O)c2ccc(Cl)cc2)CC1`, the Potency is reported as inconclusive: 11.7 µM [inhibitor, single point]. For `COc1cccc(NS(=O)(=O)c2ccc3c(c2)CCN3C(C)=O)c1`, the Potency was inconclusive: 4.65 µM [inhibitor, partial curve]. For `CSc1ccccc1NC(=O)c1cc(S(=O)(=O)N(C)C)ccc1N1CCCC1`, the Potency was inconclusive: 4.65 µM [inhibitor, partial curve]. With `COc1ccc(-c2[nH]c(-c3ccc(F)cc3)nc2SCC(=O)NCc2ccco2)cc1OC` the Potency was inconclusive: 2.08 µM [inhibitor, full curve, poor fit]. In the case of `CCOc1ccccc1-n1c(COc2ccc(C)cc2)nnc1SCC(N)=O`, the Potency is reported as inconclusive: 8.28 µM [inhibitor, partial curve, poor fit]. With `CCc1nnc(NC(=O)C2Cc3ccccc3CN2S(=O)(=O)CC)s1` (stereo not drawn) the Potency was “inactive”. In the case of `CCOc1ccc(NC(=O)C2CCCN(c3nc(C)cc(C)n3)C2)cc1` (stereo not drawn), the Potency is reported as “inactive”. For `CC(C)N(C)Cc1cn(C)nc1-c1ccc(Oc2ccccc2)cc1`, the Potency was active: 5.22 µM. For `Cc1ccc(N(CC(=O)NC2CCCC2)C(=O)CCC(=O)Nc2nc(C)cs2)cc1`, the Potency was “inactive”. In the case of `CCCCCCNC(=O)CNC(=S)N(Cc1cccs1)C1CCCCC1`, the Potency is reported as inconclusive: 11.7 µM [inhibitor, partial curve, poor fit]. With `COC(=O)[C@H](C)NC(=O)Nc1ccccc1F` the Potency was inconclusive: 1.17 µM [inhibitor, partial curve, poor fit]. With `c1ccc(CCc2nc(-c3ccccc3)no2)cc1` the Potency was “inactive”. For `COc1ccc(/C(C)=N/NC(=O)OC(C)(C)C)cc1[N+](=O)[O-]`, the Potency was inconclusive: 1.65 µM [inhibitor, single point]. In the case of `NC1=NC(=O)C(Cc2cccc(Cl)c2)S1` (stereo not drawn), the Potency is reported as inconclusive: 10.4 µM [inhibitor, single point]. In the case of `Cc1ccc2nc(NCC(=O)NN)nc(-c3ccccc3)c2c1`, the Potency is reported as inconclusive: 11.7 µM [inhibitor, partial curve, poor fit]. For `O=C(N/N=C/c1cccc(Br)c1)c1ccc(Cn2cc(Br)cn2)o1`, the Potency was inconclusive: 11.7 µM [inhibitor, single point]. For `Cc1cc(C(=O)CSc2nc3ccccc3c(=O)[nH]2)c(C)n1CC1CCCO1` (stereo not drawn), the Potency was “inactive”. In the case of `Cc1ccc(Sc2ccc(NC(=O)CCN3C(=O)NC4(CCCC4)C3=O)cc2)c(C)c1`, the Potency is reported as “inactive”. In the case of `CCn1c(SCC(=O)c2c(N)n(C3CC3)c(=O)[nH]c2=O)nnc1-c1ccoc1C`, the Potency is reported as inconclusive: 11.7 µM [inhibitor, partial curve]. With `COc1ccc(OC)c2c1cc(C(=O)N[C@H](C(=O)N1CCC(C(=O)O)CC1)C(C)C)n2C` the Potency was “inactive”. In the case of `O=C(NCCN1CCOCC1)c1cc(-c2ccc(Cl)s2)nc2ccccc12`, the Potency is reported as “inactive”. For `O=C(NCCc1ccccc1)/C(=C\c1ccc([N+](=O)[O-])cc1)NC(=O)c1ccccc1`, the Potency was inconclusive: 18.5 µM [inhibitor, single point]. In the case of `CCN(CC)C(=O)COc1ccc(C=O)cc1OC`, the Potency is reported as inconclusive: 2.33 µM [inhibitor, single point]. For `CCOCN(C(=O)Cn1c(CO)nc2ccccc21)c1c(C)cccc1CC`, the Potency was active: 10.4 µM. In the case of `CN(C)c1ccc([P+](=O)c2ccc(N(C)C)cc2)cc1`, the Potency is reported as inconclusive: 0.37 µM [inhibitor, full curve, poor fit]. With `CC(C)C1/C(=N/O)CC(c2ccccc2)NC1c1ccccc1` (stereo not drawn) the Potency was active: 9.28 µM. In the case of `CCOC(=O)c1cc(-c2ccccc2)sc1NC(=O)C(C)Sc1nnc(N)s1` (stereo not drawn), the Potency is reported as inconclusive: 16.5 µM [inhibitor, single point]. With `Cc1c(N2C(=O)c3cccc4cccc(c34)C2=O)cnn1C` the Potency was “inactive”. In the case of `CC(C)(C)c1csc(NC(=O)c2ccc(Br)o2)n1`, the Potency is reported as “inactive”. For `COc1ccc(OC)c(NC(=O)CN(C)CC(=O)Nc2ccccc2Br)c1`, the Potency was inconclusive: 18.5 µM [inhibitor, single point]. For `CC(C)(C)NC(=S)NNC(=O)c1ccccc1Cl`, the Potency was inconclusive: 10.4 µM [inhibitor, single point]. For `Cc1nn(C)c(C(=O)NNC(=S)Nc2ccc(Cl)cc2)c1[N+](=O)[O-]`, the Potency was “inactive”. With `Cc1csc(NC(=O)c2ccc(-c3ccc(Cl)cc3Cl)o2)n1` the Potency was active: 4.65 µM. With `COc1ccc(C(=O)NCc2nnc(SCC(=O)NC3CCCCC3)o2)cc1` the Potency was “inactive”. With `NC1=NC[C@@H](Cc2ccc(O)cc2)N1CCc1cc(C(F)(F)F)cc(C(F)(F)F)c1` the Potency was active: 3.29 µM. In the case of `Cc1cc2nnc(SCC(=O)NCC(c3ccccc3)N(C)C)n2c2ccccc12` (stereo not drawn), the Potency is reported as inconclusive: 11.7 µM [inhibitor, single point]. In the case of `COC(=O)C1C(=O)C=C(Nc2ccc(F)cc2)CC1c1ccc(OC)cc1` (stereo not drawn), the Potency is reported as “inactive”. With `CSCC[C@@H](C(=O)Nc1ccc2c(c1)OCCO2)N1Cc2ccccc2C1=O` the Potency was inconclusive: 18.5 µM [inhibitor, partial curve, poor fit]. With `CC1(C)C/C(=N\NC(=S)Nc2ccccc2F)c2cc(O)ccc2O1` the Potency was active: 10.4 µM. For `COc1ccc(S(=O)(=O)Oc2ccc3c(c2)O/C(=C\c2cccnc2)C3=O)cc1`, the Potency was “inactive”. With `COc1ccc(C(=O)C2CCN(C(=O)Nc3ccc(C)cc3)CC2)cc1` the Potency was inconclusive: 13.1 µM [inhibitor, single point]. With `COn1c(SCc2ccccc2)nc2ccccc2c1=O` the Potency was inconclusive: 2.62 µM [inhibitor, full curve, poor fit]. For `O=C(Nc1cc([N+](=O)[O-])ccc1Cl)c1cccnc1`, the Potency was inconclusive: 0.0026 µM [inhibitor, full curve, poor fit]. In the case of `NC(=O)c1ncn(C2OC(CO)C(O)C2O)n1` (stereo not drawn), the Potency is reported as active: 12 µM. For `CCCCCn1c(=O)c2ccccc2n2c(CCl)nnc12`, the Potency was inconclusive: 0.0828 µM [inhibitor, full curve, poor fit]. With `CSC1=C(C#N)C(c2ccc3c(c2)OCO3)C2=C(CCCC2=O)N1` (stereo not drawn) the Potency was “inactive”. With `Cc1ccccc1CC1(CO)CCCN(C(=O)c2ccc(F)cc2)C1` (stereo not drawn) the Potency was inconclusive: 0.0047 µM [inhibitor, full curve, poor fit]. In the case of `COc1ccc(CN2CCN(S(=O)(=O)c3ccc(NC(C)=O)cc3)CC2)cc1OC`, the Potency is reported as active: 10.4 µM. In the case of `CN(C)C(Cc1ccccc1)C(=O)c1ccccc1` (stereo not drawn), the Potency is reported as inconclusive: 18.5 µM [inhibitor, single point]. With `CC(C)N1CCN(c2ccc(S(=O)(=O)N3CCOCC3)cn2)CC1` the Potency was inconclusive: 18.5 µM [inhibitor, single point]. For `Fc1ccc(COc2ccc(C(=S)N3CCCC3)cc2)cc1`, the Potency was inconclusive: 18.5 µM [inhibitor, single point]. For `O=C(/C=C/c1ccco1)Oc1cccc2cccnc12`, the Potency was active: 5.86 µM. For `CCN1CCc2c(sc(NC(=O)c3cc4ccccc4cc3OC)c2C(N)=O)C1`, the Potency was inconclusive: 2.08 µM [inhibitor, full curve]. With `Cc1cc(N)c2ccccc2n1` the Potency was “inactive”. For `CC1CC(C)CN(C(=O)c2ccc(Br)c(S(=O)(=O)N3CCOCC3)c2)C1` (stereo not drawn), the Potency was inconclusive: 11.7 µM [inhibitor, partial curve, poor fit]. With `COC(=O)c1ccc(C(=O)NCCCCO)cc1` the Potency was inconclusive: 18.5 µM [inhibitor, single point]. For `Cc1cc(CNC(=O)Cc2ccc(F)cc2)c2ccccc2n1`, the Potency was inconclusive: 2.94 µM [inhibitor, full curve, poor fit]. In the case of `CCN(CC)c1ccc(CNc2ccc(Br)cn2)cc1`, the Potency is reported as inconclusive: 16.5 µM [inhibitor, single point]. For `CCOc1ccc(-c2nnc3sc(COc4ccccc4)nn23)cc1`, the Potency was active: 11.7 µM. In the case of `CC(C)OCCCN(C)C1CCN(S(=O)(=O)c2csc(C(N)=O)c2)CC1`, the Potency is reported as inconclusive: 2.94 µM [inhibitor, partial curve, poor fit]. With `CCc1nnc(NC(=O)CCN2C(=O)c3ccccc3S2(=O)=O)s1` the Potency was inconclusive: 18.5 µM [inhibitor, single point]. For `O=S(=O)(NC1CC1)c1ccccc1`, the Potency was inconclusive: 9.28 µM [inhibitor, single point]. In the case of `CCSc1nc(N)c(NC(=O)c2ccc(Br)o2)c(=O)[nH]1`, the Potency is reported as inconclusive: 18.5 µM [inhibitor, single point]. In the case of `CC(C)n1nc(C(=O)Nc2cccc(S(=O)(=O)NCc3ccco3)c2)c2ccccc2c1=O`, the Potency is reported as inconclusive: 10.4 µM [inhibitor, single point]. In the case of `CC12CCC(C(=O)N(NC(=O)c3ccccc3Cl)C1=O)C2(C)C` (stereo not drawn), the Potency is reported as “inactive”. In the case of `CCOC(=O)c1cn(CC)c2cc(Cl)c([N+](=O)[O-])cc2c1=O`, the Potency is reported as inconclusive: 9.28 µM [inhibitor, partial curve, poor fit]. For `COC(=O)C(O)(c1ccc(NC(=O)c2ccccc2)cc1)C(F)(F)F` (stereo not drawn), the Potency was “inactive”. In the case of `NC(=O)CNC(=O)[C@@H]1CC2(CC(c3ccccc3)=NO2)CN1C(=O)c1ccc(Br)cc1` (stereo partly drawn), the Potency is reported as “inactive”. With `Cc1nnc(SCC(=O)N(C)c2ccccc2)n1Cc1ccccc1` the Potency was inconclusive: 18.5 µM [inhibitor, partial curve, poor fit]. In the case of `Cc1ccc(NC(=O)C2CC(=O)NC(N3CCCCC3)=N2)cc1Cl` (stereo not drawn), the Potency is reported as inconclusive: 0.37 µM [inhibitor, full curve].
